Assay results reported in PMC12431657, “Discovery and mechanistic insights of dibenzoylmethane as a broad spectrum inhibitor of coronavirus” (PLOS Pathogens, 2025).
Structures can show the parent of a compound that is named as a salt. Where two headings read alike, the source gives them in different places. About 95 (3%) of roughly 3,300 compounds showed an effect of 50% or more. This is one part of the list.

Test system: HCoV-229E
Design: species or system Huh-7; HTS, protection from HCoV-229E induced cell death, luminescent cell viability (CellCounting-Lite 2.0), inhibition rate
Conditions: 24 h post infection, 1 h compound pre-incubation, 10 µM, inhibitor

| SMILES | 229E Inhibition rate | 229E Inhibition rate (229E Inhibition rate, 24 h) |
| --- | --- | --- |
| CCCCOC(=O)c1ccccc1C(=O)O [Monobutyl phthalate] | 11.8% | – |
| Cc1nc(C)c(C)nc1C [Ligustrazine (hydrochloride)] | – | 3.7% |
| Cc1occc1SSc1ccoc1C [Bis(2-methyl-3-furyl)disulfide] | 22.5% | – |
| O[C@H](c1ccccc1)[C@H](O)c1ccccc1 [(R,R)-(+)-Hydrobenzoin] | 11.5% | – |
| COC(=O)[C@H]1O[C@@H](Oc2cc3oc(-c4ccccc4)cc(=O)c3c(O)c2O)[C@H](O)[C@@H](O)[C@@H]1O [Baicalin methyl ester] | 21% | – |
| COc1c(C)c2c(c(O)c1C/C=C(\C)CCC(=O)O)C(=O)OC2 [Mycophenolic acid] | 35% | – |
| CC(C)C[C@H](NC(=O)CN)C(=O)O [Glycyl-L-leucine] | 13.8% | – |
| CC(C)c1ccc2c(c1)CC[C@H]1[C@](C)(CN)CCC[C@]21C [Leelamine (hydrochloride)] | 5.7% | – |
| Nc1ccc(C(=O)O)cc1 [4-Aminobenzoic acid] | 0% | – |
| O=C(O)C1=CO[C@@H](O[C@@H]2O[C@H](CO)[C@@H](O)[C@H](O)[C@H]2O)[C@@H]2C(CO)=CC[C@H]12 [Geniposidic acid] | 6.8% | – |
| Cc1ncc(CO)c(CN)c1O [Pyridoxylamine] | – | 22.7% |
| CCCCCCCC/C=C\CCCCCCCC(=O)NCc1ccccc1 [N-Benzyloleamide] | 52.8% | – |
| CC(=O)N[C@@H](CCCN=C(N)N)C(=O)O [N-Acetyl-L-arginine] | 23% | – |
| O=C1O[C@H]([C@@H](O)CO)C(=O)C1=O [Dehydroascorbic acid] | 15.1% | – |
| O=C(O)CC(O)(CC(=O)O)C(=O)O [Lithium citrate (tetrahydrate)] | – | 15.8% |
| COc1c(O)cc2oc(-c3ccc(O)cc3)cc(=O)c2c1O [Hispidulin] | 32.8% | – |
| CCC/C=C\C=C\CCCCCCCCCO [Bombykol] | 19.5% | – |
| COc1ccc2c(c1)OC(O)C(=O)N2O (centres unmarked) [DIMBOA] | 37.2% | – |
| C=C1CC[C@@]2(OC1)O[C@H]1C[C@H]3[C@@H]4CC=C5C[C@@H](O)C[C@@H](O)[C@]5(C)[C@H]4CC[C@]3(C)[C@H]1[C@@H]2C [Neoruscogenin] | 19.5% | – |
| CCC(C)C(=O)O[C@@H]1[C@@H](OC(C)=O)[C@]2(C)[C@H](C(C)=O)CC[C@@]23O[C@]32CC[C@H]3C[C@@H](O[C@H]4C[C@@H](OC)[C@H](O[C@@H]5O[C@H](C)[C@@H](O)[C@@H](OC)[C@H]5O)[C@@H](C)O4)CC[C@]3(C)[C@@H]12 (some centres unmarked) [Tenacissoside H] | 23.1% | – |

A section from further up:

| SMILES | 229E Inhibition rate | 229E Inhibition rate (229E Inhibition rate, 24 h) |
| --- | --- | --- |
| O=C(O)C1=CO[C@@H](O[C@@H]2O[C@H](CO)[C@@H](O)[C@H](O)[C@H]2O)[C@@H]2C(CO)=CC[C@H]12 [Geniposidic acid] | 6.8% | – |
| Cc1ncc(CO)c(CN)c1O [Pyridoxylamine] | – | 22.7% |
| CCCCCCCC/C=C\CCCCCCCC(=O)NCc1ccccc1 [N-Benzyloleamide] | 52.8% | – |
| CC(=O)N[C@@H](CCCN=C(N)N)C(=O)O [N-Acetyl-L-arginine] | 23% | – |
